Where “and” joins values, the source holds several entries; their conditions need not be identical. Identical values can stand only once. Inconclusive means that the source gave no clear call. Such entries were picked first, then a sample of the others. Where the call is inconclusive, the potency comes from a doubtful curve fit. Calls of active or inactive are those of the source. Rule for the calls: active = hit-call score of the fitted dose curve at least 0.9, where 1 is the maximum; inconclusive = response in the unintended direction; inactive = score below 0.9.
system: chicken Androgen Receptor (AR), gene 422165; test: ATG_chAR_XSP1: Attagene TRANS-FACTORIAL Multi-Species (XSP1) HepG2 Assay for chicken Androgen Receptor (AR) (AID 2283768)
Procedure: ATG_XSP1_multi-species_TRANS is a cell-based, multiplexed assay created by modifying the existing Attagene TRANS-FACTORIAL system to include a panel of nuclear receptors from some or all the following species: human (Homo sapiens), mouse (Mus musculus), frog (Xenopus laevis), zebrafish (Danio rerio), chicken (Gallus gallus), and turtle (Chrysemys picta). The ECOTOX-FACTORIAL format uses HepG2, a human liver cell line, with measurements taken at 24 hours after chemical dosing in a 24-well plate. Xsp1 included 3 nM 6-alpha-fluorotestosterone to partially stimulate the androgen receptor.ATG_chAR_XSP1 is one of 29 assay components measured or calculated from the ATG_XSP1_multi-species_TRANS assay. It is designed to make measurements of mRNA induction, a form of inducible reporter, as detected with fluorescence intensity signals by Reverse transcription polymerase chain reaction (RT-PCR) and Capillary electrophoresis technology.The assay endpoint ATG_chAR_XSP1 was analyzed in the positive analysis fitting direction relative to DMSO as the negative control and baseline of activity. Using a type of inducible reporter, measures of mRNA for gain-of-signal activity can be used to understand the reporter gene at the transcription factor-level as they relate to the gene AR. Furthermore, this assay endpoint can be referred to as a primary readout, because this assay has produced multiple assay endpoints where this one serves a reporter gene function. To generalize the intended target to other relatable targets, this assay endpoint is annotated to the nuclear receptor intended target family, where the subfamily is steroidal.
Human liver HepG2 cells are transiently transfected with multiple reporter transcription units (MRTUs) in 6-well plates using FuGene 6 reagent (Roche; 3 ml FuGene/1 mg DNA). The MRTU constructs are regulated by a cis-regulating element (promoter). […] A major difference between the CIS and TRANS system is that in CIS activities of endogenous TFs are measured, whereas the TRANS assay evaluates changes in activities of exogenous, chimeric NR-Gal4 proteins. […] At the end of 24 hour incubation, total RNA was isolated using TriZol reagent (Invitrogen). The isolated RNA is then reverse-transcribed using oligo(dT) primer and Mo-MLV reverse transcriptase (Invitrogen) with DNAse I (Ambion) treatment for 30 min. The one-tenth of the produced cDNA was amplified by PCR using Taq DNA polymerase (Invitrogen) and two reporter sequence-specific primers. The PCR products were fluorescently labeled by primer extension with 6-arboxyfluorescein (6-FAM) 5'-labeled reporter sequence-specific primer (2 min at 95 C, 20 s at 68 C and 10 min at 72 C) and these products were digested with 5U of HpaI (New England Biolabs) for 2h at 37 C. The fragments were purified using Qiaquick PCR columns (Qiagen), analyzed on an ABI 3130xL genetic analyzer (Applied Biosystems) with peak positions identified by using a set of X-rhodamine (ROX)-labeled MapMarker1000 molecular weight standards (BioVentures). The raw capillary electrophoresis data was processed using Attagraph software (Attagene).

SMILES	AC50	outcome
O=P(OC(CCl)CCl)(OC(CCl)CCl)OC(CCl)CCl	inconclusive: 181 µM	–
CCC(C)(C)C1CCC(O)CC1 (stereo not given)	inconclusive: 15 µM	–
CC(C)(c1ccc(O)cc1)c1ccc(O)cc1	inconclusive: 10.2 µM	–
CC1(C)C(C=C(Cl)Cl)C1C(=O)OCc1cccc(Oc2ccccc2)c1 (stereo not given)	–	inactive
C#C[C@]1(O)CC[C@H]2[C@@H]3CCC4=CC(=O)CC[C@@H]4[C@H]3CC[C@@]21CC	inconclusive: 6.28 nM and inconclusive: 40.2 nM	–
C(=C(c1ccccc1)c1ccccc1)c1ccccc1	inconclusive: 1.69 µM	–
CC(=O)S[C@@H]1CC2=CC(=O)CC[C@]2(C)[C@H]2CC[C@@]3(C)[C@@H](CC[C@@]34CCC(=O)O4)[C@H]12	inconclusive: 0.0361 µM	–
O=C(c1ccc(O)cc1O)c1ccc(O)cc1O	active: 0.133 µM	–
Cc1c2ccccc2c(C)c2c1ccc1ccccc12	active: 8.7 µM	–
CC(C)C(=O)Nc1ccc([N+](=O)[O-])c(C(F)(F)F)c1	inconclusive: 80.2 µM	–
C[C@]12CC[C@H]3C(=CCc4cc(O)ccc43)[C@@H]1CCC2=O	inconclusive: 0.26 µM	–
CC[C@H](c1ccc(O)cc1)[C@@H](CC)c1ccc(O)cc1	–	inactive
CC(C)CCCCCCc1ccc(O)cc1	inconclusive: 10 µM	–
O=C(c1ccccc1)c1ccc(O)cc1O	active: 1.98 µM	–
CCN(CC)CCOc1ccc(C(=C(Cl)c2ccccc2)c2ccccc2)cc1	inconclusive: 5.37 µM	–
